In US20250057918A1:
No constants are given. Whether binding was seen depends on the method and setting. Some binding calls cover weakened binding; strength is not graded here.

Key:
[1] = molecular target: T1, mouse IL-18BP (amino acids 31-194) (mouse) (UniProt Q9Z0M9); experiment: SPR, mIL-18 as analyte on immobilised biotinylated mIL-18BP
T1 sequence (chain, biotinylated on the AviTag (BirA ligase)): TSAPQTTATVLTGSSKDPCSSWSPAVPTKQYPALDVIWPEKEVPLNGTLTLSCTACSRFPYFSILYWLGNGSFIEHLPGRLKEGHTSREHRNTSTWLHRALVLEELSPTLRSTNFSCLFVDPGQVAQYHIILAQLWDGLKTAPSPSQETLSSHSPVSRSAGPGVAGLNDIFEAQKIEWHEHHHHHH

[2] = molecular target: T1, mouse IL-18BP (amino acids 31-194) (mouse); experiment: flow cytometry, mIL-18BP titrated on yeast-displayed murine IL-18 (binding isotherm, %Max)

binding [1]: binds
binding [2]: binds
B1: wild-type mouse IL-18 (mature form) (ligand)
chain: NFGRLHCTTAVIRNINDQVLFVDKRQPVFEDMTDIDQSASEPQTRLIIYMYKDSEVRGLAVTLSVKDSKMSTLSCKNKIISFEEMDPPENIDDIQSDLIFFQKRVPGHNKMEFESSLYEGHFLACQKEDDAFKLILKKKDENGDKSVMFTLTNLHQS
